Measurements from paper PMC10497406, “PCNA recruits cohesin loader Scc2 to ensure sister chromatid cohesion” (Nature Structural & Molecular Biology, 2023).
These are yes or no findings as the source states them, for the method shown. Binding seen in cells or lysates may run through a third protein. For part of these data: A result given as binding can be weak or reduced; the word gives no strength.

By UniProt entry, the sequences of proteins in these tests, tags left out. Where a name states a change or a piece, a line headed by the entry shows the natural chain unless it says otherwise.
UniProt Q04002: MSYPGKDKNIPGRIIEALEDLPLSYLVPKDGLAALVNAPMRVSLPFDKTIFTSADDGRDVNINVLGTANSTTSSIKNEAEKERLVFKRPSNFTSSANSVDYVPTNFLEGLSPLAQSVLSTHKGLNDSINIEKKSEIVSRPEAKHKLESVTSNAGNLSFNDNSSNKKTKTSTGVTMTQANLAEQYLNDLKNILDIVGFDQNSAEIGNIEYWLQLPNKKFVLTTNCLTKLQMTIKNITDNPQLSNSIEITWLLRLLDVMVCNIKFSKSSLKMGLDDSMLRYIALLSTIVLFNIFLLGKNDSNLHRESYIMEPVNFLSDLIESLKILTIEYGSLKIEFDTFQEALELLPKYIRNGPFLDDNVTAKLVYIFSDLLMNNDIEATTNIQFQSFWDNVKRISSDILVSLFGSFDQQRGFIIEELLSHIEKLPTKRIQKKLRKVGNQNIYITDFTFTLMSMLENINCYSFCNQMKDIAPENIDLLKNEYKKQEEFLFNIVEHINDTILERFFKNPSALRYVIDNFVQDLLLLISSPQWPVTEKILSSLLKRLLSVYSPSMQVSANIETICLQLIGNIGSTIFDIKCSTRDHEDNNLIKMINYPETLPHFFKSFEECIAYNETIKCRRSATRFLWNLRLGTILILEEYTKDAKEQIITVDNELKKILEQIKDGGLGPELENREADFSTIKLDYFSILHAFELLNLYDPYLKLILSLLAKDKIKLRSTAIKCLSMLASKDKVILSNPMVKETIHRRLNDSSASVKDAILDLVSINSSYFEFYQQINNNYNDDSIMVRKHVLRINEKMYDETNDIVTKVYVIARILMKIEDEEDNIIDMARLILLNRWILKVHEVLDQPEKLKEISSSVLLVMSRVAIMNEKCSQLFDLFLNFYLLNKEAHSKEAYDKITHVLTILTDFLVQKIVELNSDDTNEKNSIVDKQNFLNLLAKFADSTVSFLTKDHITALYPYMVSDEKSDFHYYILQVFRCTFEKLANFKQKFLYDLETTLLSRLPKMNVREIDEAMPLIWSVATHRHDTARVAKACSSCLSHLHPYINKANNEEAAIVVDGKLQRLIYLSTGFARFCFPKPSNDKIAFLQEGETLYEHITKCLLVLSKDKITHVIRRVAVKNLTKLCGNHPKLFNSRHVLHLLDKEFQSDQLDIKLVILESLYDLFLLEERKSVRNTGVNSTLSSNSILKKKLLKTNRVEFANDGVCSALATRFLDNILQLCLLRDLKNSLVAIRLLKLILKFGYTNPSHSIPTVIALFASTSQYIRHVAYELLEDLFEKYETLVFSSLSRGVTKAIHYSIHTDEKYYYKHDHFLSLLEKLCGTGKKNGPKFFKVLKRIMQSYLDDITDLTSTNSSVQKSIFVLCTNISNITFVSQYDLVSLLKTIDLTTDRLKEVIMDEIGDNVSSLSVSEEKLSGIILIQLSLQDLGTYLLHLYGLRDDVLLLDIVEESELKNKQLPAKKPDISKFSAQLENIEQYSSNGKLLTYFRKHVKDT
UniProt P15873: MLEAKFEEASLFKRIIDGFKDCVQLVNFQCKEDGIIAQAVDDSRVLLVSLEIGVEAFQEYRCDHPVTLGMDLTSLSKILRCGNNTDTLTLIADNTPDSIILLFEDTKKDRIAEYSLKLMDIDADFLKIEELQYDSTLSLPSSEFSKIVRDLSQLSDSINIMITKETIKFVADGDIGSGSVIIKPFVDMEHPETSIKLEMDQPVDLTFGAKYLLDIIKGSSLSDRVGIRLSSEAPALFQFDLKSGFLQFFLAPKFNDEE
UniProt A0A8V1AEC9: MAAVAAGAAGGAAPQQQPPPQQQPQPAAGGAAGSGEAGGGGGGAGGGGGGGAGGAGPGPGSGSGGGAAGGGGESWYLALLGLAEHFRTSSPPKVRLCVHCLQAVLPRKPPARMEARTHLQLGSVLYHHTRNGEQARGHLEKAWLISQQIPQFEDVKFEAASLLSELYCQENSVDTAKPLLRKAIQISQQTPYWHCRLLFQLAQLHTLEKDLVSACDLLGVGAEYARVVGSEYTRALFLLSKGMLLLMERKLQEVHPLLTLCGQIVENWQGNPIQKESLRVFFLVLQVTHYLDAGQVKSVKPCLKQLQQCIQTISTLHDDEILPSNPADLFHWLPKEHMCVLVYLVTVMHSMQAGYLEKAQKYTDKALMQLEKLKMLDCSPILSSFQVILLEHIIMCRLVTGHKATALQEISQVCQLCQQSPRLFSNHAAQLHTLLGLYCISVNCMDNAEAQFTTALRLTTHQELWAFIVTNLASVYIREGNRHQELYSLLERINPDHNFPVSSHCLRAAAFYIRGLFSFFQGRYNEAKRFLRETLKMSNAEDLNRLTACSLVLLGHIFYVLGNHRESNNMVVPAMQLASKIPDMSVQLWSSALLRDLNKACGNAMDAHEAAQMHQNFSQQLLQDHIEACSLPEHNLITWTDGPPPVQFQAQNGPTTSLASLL
UniProt Q9DEA3: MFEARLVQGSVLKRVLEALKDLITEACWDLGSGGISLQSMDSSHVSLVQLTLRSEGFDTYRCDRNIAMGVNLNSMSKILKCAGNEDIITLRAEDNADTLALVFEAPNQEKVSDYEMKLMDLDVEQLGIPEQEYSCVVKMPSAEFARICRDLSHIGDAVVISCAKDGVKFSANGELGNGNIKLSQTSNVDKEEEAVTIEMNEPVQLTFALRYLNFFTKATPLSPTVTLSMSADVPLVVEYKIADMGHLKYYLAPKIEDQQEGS

Assays:
[1] = biological target: N-terminally 7His8Flag (HF)-tagged Scc2^E822K-pip (S. cerevisiae) (UniProt Q04002); assay: cross-linking; yeast cultures cross-linked with 1% formaldehyde for 30 min; Ni-NTA pulldown of HF-tagged Scc2^E822K under denaturing conditions; blot with anti-Pol30
[2] = biological target: 3HA–NIPBL (chicken), overexpressed (chicken) (UniProt F1NJ66); assay: co-IP; IP of overexpressed 3HA–NIPBL with anti-HA magnetic beads from sonicated DT40 lysates, overnight; washes 200 mM NaCl, 0.5% NP-40

binding [1]	binding [2]	Substance
no binding	–	Pol30 (yeast PCNA), endogenous (from UniProt P15873 1-258)
–	binds	chicken MAU2, endogenous (from UniProt A0A8V1AEC9 1-662)
–	binds	chicken PCNA, endogenous (from UniProt Q9DEA3 1-262)
